# Data reported in patent publication US6548290 (Harvard, dated 2003).
# B1: geminin (Xenopus; as used in the co-immunoprecipitation experiments) (other)
# chain: MNTNKKQRLDMEKPTMSIKNYFVDKTNESLAPRRTLKVIQPSASGCLVGRTKEPVKNSTKRKLWNDQLTSKKAKVEVAVDPEHRENKDCSSEAYDLMVKETPTCLYWKEVAEERRKALYEALQENEKLHKEIELKDEEIARLKQENDELMELAGHVQYMANMIERLTGNAPRSLEDLKDLDLEEARFEDEADMAEARIEDETDMARPSNSDQNMDAHTV
# Target: Xcdc6 (Xenopus)
# Assay: co-immunoprecipitation (preliminary experiments)
binder,measurement,value
B1,binding,no binding

# These are yes or no findings as the source states them, for the method shown. Binding seen in cells or lysates may run through a third protein.
